Measurements reported in the supplement of paper PMC12889115.
The list shows a part of the results. These are raw signals, not scaled to a control.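 Primary screen: polymyxin B was added at a level permeabilizing Salmonella outer membranes while sparing inner membranes. DMSO wells, both with and without polymyxin B, established maximum growth. Plate-to-plate variation meant each plate was ranked on its own, and the lowest-OD600 compounds were selected as hits.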

Test system: Salmonella enterica serovar Typhimurium SL1344
Assay: bacterial growth OD600 after 18 h with compound and polymyxin B; higher = more bacterial growth (less inhibition)
Conditions: 50 µM, Mueller-Hinton broth

Row | SMILES | bacterial growth OD600 (polymyxin B 1 µg/mL) | bacterial growth OD600 (polymyxin B 0.75 µg/mL)
1 | CN(CCCCN1CCOCC1)C(=O)c1ccc2nc(Cc3ccccc3F)oc2c1 | 0.908 | –
2 | O=C(CC1C(=O)NCCN1Cc1cccs1)NCCCc1ccccc1 (configuration not stated) | – | 0.993
3 | Cc1cc(CN(C)c2ccc(-c3nc(COc4ccccc4)no3)cn2)on1 | 0.805 | –
4 | O=C(Cc1ccc(N2CCC(NCc3scnc3-c3ccccc3)CC2)cc1)NCc1ccccn1 | – | 1.01
5 | CCN(C)c1nc2nonc2nc1NC1CCCC1 | 0.945 | –
6 | O=C(Nc1ccc(N2CCC(NCC3COc4ccccc4O3)CC2)cc1)C1CCCC1 (configuration not stated) | – | 0.482
7 | CC(=O)Nc1cc(C(=O)NCCCn2nnc3ccccc32)c2c(c1)nc(C)n2Cc1ccccc1 | – | 1.02
8 | CC(C)N1CCC(N2CCCC(C(=O)N3CC=C(c4ccccc4)CC3)C2)CC1 (configuration not stated) | – | 0.815
9 | O=C(c1ccc(NC2CCCC2)nc1)N1CCCN(c2ncccn2)CC1 | – | 0.818
10 | O=C(c1csc2nc(-c3cccc(F)c3)cn12)N1CCCCCC1 | 0.739 | –
11 | Cc1nonc1CN(C)C(=O)CC(c1ccccc1)c1ccccc1Cl (configuration not stated) | 0.011 | –
12 | O=C(c1cccc(F)c1)N(Cc1ccncc1)Cc1cccc(OCCc2ccc(F)cc2)c1 | – | -0.006
13 | COc1ccc2cc(C(=O)C3CCCN(Cc4csc(C(C)=O)c4)C3)ccc2c1 (configuration not stated) | 0.747 | –
14 | COc1ccc(CCC(=O)N2CCc3c(cnc(C)c3CNC(=O)c3ccc4c(c3)OCO4)C2)cc1 | – | 0.806
15 | COc1cccc(NC(=O)CCC2CCN(Cc3ccc(F)c(OC)c3)CC2)c1 | 0.831 | –
16 | Cc1nc(CN2CCN(c3nc4nonc4nc3N3CCCCC3)CC2)cs1 | – | 0.699

Row | SMILES | bacterial growth OD600 (polymyxin B 1 µg/mL) | bacterial growth OD600 (polymyxin B 0.75 µg/mL)
17 | CC#CCN1C(=O)NC(CCCc2ccccc2)(C2CCN(C(=O)/C=C/c3ccccc3)CC2)C1=O (configuration not stated) | – | -0.003
18 | CCOC(=O)CNC(=O)N1C[C@H]2OC(=O)N(CCc3ccc(F)cc3)[C@H]2C1 | 0.885 | –
19 | CC#CC(=O)N1CCCC(Cc2ccc(F)cc2F)(C(=O)OCC)C1 (configuration not stated) | 0.815 | –
20 | COc1cccc(CCC2CCCN(C(=O)C(C)C)C2)c1 (configuration not stated) | – | 0.596
21 | Cc1ncoc1C(=O)N1CCCC(CCc2ccccc2C(F)(F)F)C1 (configuration not stated) | – | 0.651
22 | COc1ccc(NC(=O)CCC2CCCN(C(=O)CCc3cccnc3)C2)cc1Cl (configuration not stated) | 0.877 | –
23 | O=C(CCC1(Cc2cccs2)CCC(=O)N1)NCc1cnn(-c2ccccc2)n1 (configuration not stated) | – | 0.81
24 | CN(CCC(O)c1ccccc1)C(=O)c1cc(COc2cccc3cnccc23)on1 (configuration not stated) | 0.944 | –
25 | O=C(c1cc(COc2ccc3c(c2)CCCC3)on1)N1CCN(C2CCCC2)C(=O)C1 | 0.005 | –
26 | COc1cccc(CNC(=O)CCC2CCCN(C(=O)Cc3cccc(C)c3)C2)c1 (configuration not stated) | 1.2 | –
27 | Cn1ccnc1SCCNc1nc2nonc2nc1N1CCSCC1 | – | 0.953
28 | Cc1c(C(=O)N2CCCCC2)sc2ncnc(N3CCCCCCC3)c12 | – | 0.003
29 | CN(C)CC(C)(C)CNC(=O)c1cc(Cn2cnc3ccccc32)[nH]n1 | – | 0.795
30 | O=C(NC1(c2ccccc2)CC1)C1CCC(=O)N(CCCN2CCOCC2)C1 (configuration not stated) | 0.838 | –
31 | Cc1cc(C(=O)N2CCCC(Nc3ccc4c(c3)OCCO4)C2)nn1C (configuration not stated) | 0.944 | –
32 | C/C=C(\C)CN1CCC(O)(Cc2cc(-c3ccccc3)no2)CC1 | 0.702 | –

In the list so far, these have sulfur.
Row | SMILES | bacterial growth OD600 (polymyxin B 1 µg/mL) | bacterial growth OD600 (polymyxin B 0.75 µg/mL)
2 | O=C(CC1C(=O)NCCN1Cc1cccs1)NCCCc1ccccc1 (configuration not stated) | – | 0.993
4 | O=C(Cc1ccc(N2CCC(NCc3scnc3-c3ccccc3)CC2)cc1)NCc1ccccn1 | – | 1.01
10 | O=C(c1csc2nc(-c3cccc(F)c3)cn12)N1CCCCCC1 | 0.739 | –
13 | COc1ccc2cc(C(=O)C3CCCN(Cc4csc(C(C)=O)c4)C3)ccc2c1 (configuration not stated) | 0.747 | –
16 | Cc1nc(CN2CCN(c3nc4nonc4nc3N3CCCCC3)CC2)cs1 | – | 0.699
23 | O=C(CCC1(Cc2cccs2)CCC(=O)N1)NCc1cnn(-c2ccccc2)n1 (configuration not stated) | – | 0.81
27 | Cn1ccnc1SCCNc1nc2nonc2nc1N1CCSCC1 | – | 0.953
28 | Cc1c(C(=O)N2CCCCC2)sc2ncnc(N3CCCCCCC3)c12 | – | 0.003
